Assay results from patent US20150376276A1 (Seagen, published 2015).

Molecular target: cynomolgus monkey NTB-A (cynomolgus monkey)
Assay: flow cytometry on stable 293-F17 transfectants

binding: no binding (tested: 2 µg/mL)
B1: 26B7 murine IgG1 antibody (antibody, V domains shown)
VH: QVQLLQPGAEVVKPGTSVKLSCKASGYNFTIYWINWVKLRPGQGLEWIGDIHPGRGNTNLNEKFKTKATLTVDTSSSTAYMQLNSLAFEDSALYYCAREDEDWYFDVWGAGTTVTVSS
VL: DIQMNQSPSSLSASLGDTITITCRASQGISIWFNWYQQKSGNIPKLLIYKTSNLHTGVPPRFSGSGSGTDFTLTISSLQPEDIATYYCLQSQSYPYTFGGGTKLEIKR
notes: Murine IgG1; also called mAb 26B7

No constants are given. Whether binding was seen depends on the method and setting.
